From article PMC11047997
Results are given in words; binding and its absence hold for the method and conditions named. Binding seen in cells or lysates may run through a third protein. Binding calls can cover weak binding; strength is not graded here. Tags and fused reporters may be left off the sequences shown.

Amino acid sequences for entries named in this document (tags omitted). A change or cut given only in a name is not applied to a line headed by its entry.
UniProt Q969H0: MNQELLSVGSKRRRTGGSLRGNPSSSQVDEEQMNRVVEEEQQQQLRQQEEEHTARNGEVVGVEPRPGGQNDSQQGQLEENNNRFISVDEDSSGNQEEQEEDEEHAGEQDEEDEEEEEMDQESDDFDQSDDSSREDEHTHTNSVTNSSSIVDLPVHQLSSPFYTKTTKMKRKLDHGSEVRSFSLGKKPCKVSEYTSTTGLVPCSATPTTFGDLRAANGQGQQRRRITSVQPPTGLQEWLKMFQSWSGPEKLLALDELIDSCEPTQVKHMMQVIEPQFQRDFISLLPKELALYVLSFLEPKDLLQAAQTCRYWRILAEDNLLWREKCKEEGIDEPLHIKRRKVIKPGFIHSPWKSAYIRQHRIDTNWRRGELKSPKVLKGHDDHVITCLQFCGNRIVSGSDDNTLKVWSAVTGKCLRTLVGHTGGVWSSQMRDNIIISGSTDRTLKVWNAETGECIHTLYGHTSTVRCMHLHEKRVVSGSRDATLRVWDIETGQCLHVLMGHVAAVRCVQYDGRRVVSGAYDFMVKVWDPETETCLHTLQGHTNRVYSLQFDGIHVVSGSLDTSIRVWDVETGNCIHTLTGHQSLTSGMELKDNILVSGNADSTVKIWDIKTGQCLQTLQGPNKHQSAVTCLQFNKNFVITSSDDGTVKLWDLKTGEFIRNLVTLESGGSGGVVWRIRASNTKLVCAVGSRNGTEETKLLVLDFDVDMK

Biological target: T1, Flag-IL-17RA full-length (human) (UniProt Q96F46)
T1 sequence: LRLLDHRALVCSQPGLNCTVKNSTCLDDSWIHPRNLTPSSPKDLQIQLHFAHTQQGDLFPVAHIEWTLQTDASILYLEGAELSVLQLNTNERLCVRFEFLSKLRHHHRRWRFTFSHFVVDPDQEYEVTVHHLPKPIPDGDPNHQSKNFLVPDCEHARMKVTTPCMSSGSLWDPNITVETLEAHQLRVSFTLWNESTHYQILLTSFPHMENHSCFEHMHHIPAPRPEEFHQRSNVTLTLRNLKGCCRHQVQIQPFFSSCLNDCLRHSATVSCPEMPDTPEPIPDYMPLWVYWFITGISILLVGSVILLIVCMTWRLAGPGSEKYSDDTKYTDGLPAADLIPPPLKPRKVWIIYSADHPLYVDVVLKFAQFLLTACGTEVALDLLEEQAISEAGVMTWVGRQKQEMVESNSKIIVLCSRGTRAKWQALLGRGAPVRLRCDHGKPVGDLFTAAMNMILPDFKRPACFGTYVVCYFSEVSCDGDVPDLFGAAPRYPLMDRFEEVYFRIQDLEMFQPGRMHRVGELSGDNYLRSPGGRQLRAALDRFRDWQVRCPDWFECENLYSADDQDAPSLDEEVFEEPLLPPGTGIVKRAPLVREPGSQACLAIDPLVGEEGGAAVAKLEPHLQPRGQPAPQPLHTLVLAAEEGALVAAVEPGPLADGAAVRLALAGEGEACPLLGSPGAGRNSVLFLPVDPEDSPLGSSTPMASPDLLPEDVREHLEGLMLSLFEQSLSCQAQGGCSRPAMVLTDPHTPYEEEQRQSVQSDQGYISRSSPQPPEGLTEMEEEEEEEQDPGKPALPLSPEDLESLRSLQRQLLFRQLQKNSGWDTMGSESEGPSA
Assay: co-IP; HEK293T cells co-transfected, lysed 48 h later in IP lysis buffer (50 mM Tris-HCl pH 7.5, 0.5% Nonidet P-40, 1 mM EDTA, 150 mM NaCl, 1 mM DTT); immunoprecipitation with anti-Flag M2, anti-c-Myc or anti-FBXW7 antibody and rProtein A agarose at 4 °C overnight; Western blot; reciprocal in Figure 2

- binding: binds
Substance: Myc-FBXW7 ∆F box (from UniProt Q969H0) (enzyme)
